# Test results as given in patent US20170049786A1, “MTOR PATHWAY INHIBITORS FOR TREATING OCULAR DISORDERS” (Santen Pharmaceutical Co., Ltd., priority 2009, published 2017).
# At least one structure is not confirmed: it was looked up by name or label, or the drawing left a doubt.
# Key:
# CNV = settings: cited from earlier work
# [1] = system: retinal and choroidal neovascularization (RNV and CNV); assay: Inhibition of retinal and choroidal neovascularization in vivo (subretinal […]/bFGF/VEGF model, fluorescein angiography); design: species or system New Zealand white rabbits; settings: six microliter intravitreal dose of 2% agent in 4% ethanol, 94% PEG400 on Day 8; compared with 50 microliter AVASTIN (25 mg/ml)
# Protocol: The objective of this study was to evaluate the effects of various therapeutic agents (everolimus, sirolimus, temsirolimus, and zotarolimus) on retinal and choroidal neovascularization (RNV and CNV) in a rabbit model (Qiu et al., Exp Eye Res, 83:141-152, 2006). Liquid formulations containing 2% (w/w) of the therapeutic agents were prepared in 4% (w/w) ethanol, and 94% (w/w) PEG400. As a positive control, a formulation containing 25 mg/ml AVASTIN was used. As a negative control, vehicle (4% ethanol, 96% PEG400) was used. Recombinant human basic fibroblast growth factor (bFGF) and vascular endothelial growth factor (VEGF) were obtained from R&D Systems. New Zealand white rabbits were used in this study.
# On Day 1, the right eye of each animal received a subretinal injection of 10-20 μL of […] containing 10 μg/0.1 mL b-FGF and 2 μg/0.1 mL VEGF. […]-containing formulations are kept on ice until administered. Briefly, the conjunctiva was opened and a small slit in the sclera was made to expose the vitreous. A cannula connected to a tuberculin syringe was inserted into the subretinal space and the […]/growth factor combination was delivered. The scleral and conjunctival opening were closed with a 7-0 Vicryl suture. […]
smiles,measurement,setting,value
"CO[C@H]1C[C@@H]2CC[C@@H](C)[C@@](O)(O2)C(=O)C(=O)N2CCCC[C@H]2C(=O)O[C@H]([C@H](C)C[C@@H]2CC[C@@H](O)[C@H](OC)C2)CC(=O)[C@H](C)/C=C(\C)[C@@H](O)[C@@H](OC)C(=O)[C@H](C)C[C@H](C)/C=C/C=C/C=C/1C [sirolimus, rapamycin]",inhibition of MATRIGEL and laser-induced CNV,CNV; administered systemically and subretinally,inhibit MATRIGEL™ and laser-induced CNV
same,inhibition of laser-induced CNV,CNV; periocular injection,inhibits laser-induced CNV
same,inhibition of CNV,CNV; rat and mice models,inhibit CNV
same,inhibition of neovascular disease (fluorescein angiography grading),[1],inhibited neovascular disease to a greater extent than a 50 microliter dose of AVASTIN
